According to article PMC7819943, “Rice protein-binding microarrays: a tool to detect cis-acting elements near promoter regions in rice”:
The other results are listed elsewhere or left out.

Amino acid sequences for entries named in this document (tags omitted).
UniProt Q0JBA9, entry or part of it: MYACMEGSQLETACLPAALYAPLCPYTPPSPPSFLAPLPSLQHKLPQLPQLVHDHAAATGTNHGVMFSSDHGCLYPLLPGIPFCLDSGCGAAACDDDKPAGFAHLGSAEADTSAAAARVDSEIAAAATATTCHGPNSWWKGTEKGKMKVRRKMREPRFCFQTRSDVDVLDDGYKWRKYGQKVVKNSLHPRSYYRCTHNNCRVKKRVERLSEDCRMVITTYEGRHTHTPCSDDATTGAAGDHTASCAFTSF

These sequences were tested against OsWRKY34 (Oryza sativa, UniProt Q0JBA9 1-250) (assay: protein-binding microarray (RPBM); PBS, 2% BSA, 51.3 ng/ul salmon testes DNA, 50 uM zinc acetate, 200 nM TF, 25 C, 1 h; high values mean tight binding). Details: protein: recombinant; tags: N-terminal polyhistidine and DsRed monomer fusion (pET32a); label: CyDye5-dUTP incorporated in the synthesized complementary strand; 3' TTTTT single-stranded linker to array surface; dsDNA, one strand shown.
Outline: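 An Axon 4000B scanner gave the binding signal as per-feature fluorescence intensity in arbitrary units. This followed washing of a custom Agilent array that had been incubated for 1 h at 25 °C with 200 nM protein in PBS, 2% BSA, salmon testes DNA and 50 µM zinc acetate. The proteins were transcription factors fused at the N-terminus to polyhistidine and DsRed, expressed in E. coli BL21-CodonPlus and purified on Ni–NTA.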
For “GTGCTACCTCCATCCCAATATACTTGTCGTTTTAAGTTTTCGGAGTCACCTAGTGCAG”, the binding signal was 11800 fluorescence intensity (a.u.). For “AGGAAGATAATTTAACACATACTTGTCGATCTCTATAATACGGAGTCACCTAGTGCAG”, the binding signal was 8250 fluorescence intensity (a.u.). In the case of “CTCCACCACACATGCTTCAAGTGACTAGGAGGGCATCCTCCGGAGTCACCTAGTGCAG”, the binding signal is reported as 8590 fluorescence intensity (a.u.). With “TGCTACTACTTGCTGTGTGTTTCTGAGGAAAATTTATTAGCGGAGTCACCTAGTGCAG” the binding signal was 8770 fluorescence intensity (a.u.). “CTCCCGTGTCCCATTTAAAACCTTCTTCTTCTTCTTCGCTCGGAGTCACCTAGTGCAG” was tested, and the binding signal was 8650 fluorescence intensity (a.u.). In the case of “ATTTATTATTTTATATATTGGTGCATTTTATTCAAACTCACGGAGTCACCTAGTGCAG”, the binding signal is reported as 8850 fluorescence intensity (a.u.). “CCTCTCCGACTCCCGCCAATCCCATCCGTCCATCCATCTCCGGAGTCACCTAGTGCAG” was tested, and the binding signal was 9690 fluorescence intensity (a.u.). With “CTGTGTGTTGTTTCTTGTATCCTGTGCGTGGTCGGGTTAACGGAGTCACCTAGTGCAG” the binding signal was 12700 fluorescence intensity (a.u.). “AAGGACCCGTTCTATCTGGTTTTGCGGTTGAAGGATAGAACGGAGTCACCTAGTGCAG” was tested, and the binding signal was 28000 fluorescence intensity (a.u.). “CACCAATACTAGACACTAGCACAACATTATATTCTCTCTTCGGAGTCACCTAGTGCAG” was tested, and the binding signal was 8560 fluorescence intensity (a.u.). In the case of “TCGCAGCCTCGCCTCTGAATCGCTCGCCGACTCGCGTTTTCGGAGTCACCTAGTGCAG”, the binding signal is reported as 9630 fluorescence intensity (a.u.). In the case of “CCCTCGGGTTCGACATCATCATACTACCATCGCCGCAGCCCGGAGTCACCTAGTGCAG”, the binding signal is reported as 8250 fluorescence intensity (a.u.). With “ATTGTTGACACTATGACTTTCTTACTTTGACCGCAATTTTCGGAGTCACCTAGTGCAG” the binding signal was 11800 fluorescence intensity (a.u.). With “AATAAATATCCCACCCATCCATCCACCCGAGGACACTACACGGAGTCACCTAGTGCAG” the binding signal was 8740 fluorescence intensity (a.u.). “ACCATGTGCTCCGTTCTCTTGTCCTGCCTATCTATCTAACCGGAGTCACCTAGTGCAG” was tested, and the binding signal was 12400 fluorescence intensity (a.u.). With “GGCCAATCCACGCCTCCGAACAAGTAGCCCACTAGATCATCGGAGTCACCTAGTGCAG” the binding signal was 10200 fluorescence intensity (a.u.). For “AAAGAGAAACCCTTCAAAACCTCGGCTCCTCGTTCTCCCACGGAGTCACCTAGTGCAG”, the binding signal was 8460 fluorescence intensity (a.u.). “GTTCAACATGTCAACCGCTTGTTCTTGTACTTGAGTGGAACGGAGTCACCTAGTGCAG” was tested, and the binding signal was 8890 fluorescence intensity (a.u.). With “TGCGTGATTTTTTTATTAAGGTCTCACAGTTACAATTTAGCGGAGTCACCTAGTGCAG” the binding signal was 8740 fluorescence intensity (a.u.). With “GTAGAGTGTAGTTTCTATTGTGATGTCTTATTGACATGGCCGGAGTCACCTAGTGCAG” the binding signal was 8070 fluorescence intensity (a.u.). In the case of “ACATCTGGTGGTGCAGGGGTATTTTAGTCATTTCACGAGTCGGAGTCACCTAGTGCAG”, the binding signal is reported as 8930 fluorescence intensity (a.u.). “GTGAACTTCAACATGATGCTATTACATTTTTACACACTGACGGAGTCACCTAGTGCAG” was tested, and the binding signal was 9720 fluorescence intensity (a.u.). In the case of “TCACGTTTGACCGTTCGTTTTATTTGAAATTTTTTTACGACGGAGTCACCTAGTGCAG”, the binding signal is reported as 10300 fluorescence intensity (a.u.). In the case of “TGGGACCCACGTAAGCCCCACATGTCAGCCTGTCCACGTCCGGAGTCACCTAGTGCAG”, the binding signal is reported as 9010 fluorescence intensity (a.u.). For “CGTCTCATTTTAAATACAATTGTGGGTTTATTGTCCAACGCGGAGTCACCTAGTGCAG”, the binding signal was 8670 fluorescence intensity (a.u.). With “ACATTGATACTTGATGATACTCGTTGATATTTGCTTATACCGGAGTCACCTAGTGCAG” the binding signal was 9090 fluorescence intensity (a.u.). For “CAATCATGCTTCTGTTAACCGCTTCTGTTAACCCTTAGTACGGAGTCACCTAGTGCAG”, the binding signal was 11200 fluorescence intensity (a.u.). In the case of “CCGACACTTGGACCGTGACGCCCAATTGGTCCTTTGACCGCGGAGTCACCTAGTGCAG”, the binding signal is reported as 8570 fluorescence intensity (a.u.). In the case of “TTCATTCATATGGTGTAACTTTTTGTCGCTGTAGGATCGCCGGAGTCACCTAGTGCAG”, the binding signal is reported as 8130 fluorescence intensity (a.u.). “AAGATTTTTCACGCTCTCTCTCTCTCTCTCTCTCTCTCCTCGGAGTCACCTAGTGCAG” was tested, and the binding signal was 10400 fluorescence intensity (a.u.). “CATCGCCGCCACCTCCATTGATCTCTTCACCGGTGAAGAACGGAGTCACCTAGTGCAG” was tested, and the binding signal was 8710 fluorescence intensity (a.u.). In the case of “CCGCCGTCCGCCGCCATCCTCGGTGCCGCCGTGGCCTGTGCGGAGTCACCTAGTGCAG”, the binding signal is reported as 9120 fluorescence intensity (a.u.). In the case of “TCACAAAATGTACATCTCTTATATAGTTGGTCATTTCTTCCGGAGTCACCTAGTGCAG”, the binding signal is reported as 8640 fluorescence intensity (a.u.). With “ACTGCGCACACTCTCCAAGTTGCAAGTAGTGTGTGTTGACCGGAGTCACCTAGTGCAG” the binding signal was 8450 fluorescence intensity (a.u.). For “CCGAAACTCTGTTCTTTCTTCCTTTTGGCCCAATCCTTTTCGGAGTCACCTAGTGCAG”, the binding signal was 11000 fluorescence intensity (a.u.). For “ATCTGGATTCCTTTGCTTATCCTTTCTGGCTATAATCTCTCGGAGTCACCTAGTGCAG”, the binding signal was 9330 fluorescence intensity (a.u.). In the case of “GTCACCGCCGCCGCCATTCCCGACGAGGAGAAGCTCCGCACGGAGTCACCTAGTGCAG”, the binding signal is reported as 8610 fluorescence intensity (a.u.). For “TCATCTGCCTTCACTCCTCCTCATCGTCTTTTTTTTTTTTCGGAGTCACCTAGTGCAG”, the binding signal was 9750 fluorescence intensity (a.u.). For “CCCATTCGTACTGATTCATCCGGCCCGTTTGATGGCCTTCCGGAGTCACCTAGTGCAG”, the binding signal was 11600 fluorescence intensity (a.u.). In the case of “TGTGTTTTTCGCCAACGAGGTTTTTCGAGCATTCCCATAGCGGAGTCACCTAGTGCAG”, the binding signal is reported as 8030 fluorescence intensity (a.u.). “TGTTGGTGGTGAGGTGTGAGGTGAGGTGGGGTGGTGTGGCCGGAGTCACCTAGTGCAG” was tested, and the binding signal was 10100 fluorescence intensity (a.u.). “AATTAGTCACACGTAAAATATTATTCATGTTTTATCATCTCGGAGTCACCTAGTGCAG” was tested, and the binding signal was 8750 fluorescence intensity (a.u.). “TCCACCCATCGTTCTCATGACCTGCCAACCCCATCCCAGCCGGAGTCACCTAGTGCAG” was tested, and the binding signal was 10000 fluorescence intensity (a.u.). With “CAGGCGCATTCAATTCTCCCATTTACCATCGCCACCTACACGGAGTCACCTAGTGCAG” the binding signal was 8590 fluorescence intensity (a.u.). “ATTTCTTCCATATTACTTGGTGGTTTTATTTTCCTATTAGCGGAGTCACCTAGTGCAG” was tested, and the binding signal was 11200 fluorescence intensity (a.u.). For “CGCCACCGCCTCCGCCCTTAGCTGCACGACACACTCCAACCGGAGTCACCTAGTGCAG”, the binding signal was 8760 fluorescence intensity (a.u.). “CACTGTCATGTCCTGTGCACTCTTCATGCGACCATTACTCCGGAGTCACCTAGTGCAG” was tested, and the binding signal was 11100 fluorescence intensity (a.u.). With “AAAGTCATACCACCTTACTTTTTACGTTTGAATCACCATTCGGAGTCACCTAGTGCAG” the binding signal was 8510 fluorescence intensity (a.u.). For “GATCTATATATATGGTGTGTGTCCTCACTATCCGAAGGAACGGAGTCACCTAGTGCAG”, the binding signal was 10600 fluorescence intensity (a.u.). In the case of “TCCACACTGCACTATGCCACTATGTACTGGTTATCTTCTTCGGAGTCACCTAGTGCAG”, the binding signal is reported as 10800 fluorescence intensity (a.u.). “GTCACTCACTCTACGCGACTACTACTACATCGCGCCTCTCCGGAGTCACCTAGTGCAG” was tested, and the binding signal was 8100 fluorescence intensity (a.u.). “GTTTTTTATTCGTGTCAAAACCTCTTCTGAATGAACATTTCGGAGTCACCTAGTGCAG” was tested, and the binding signal was 9240 fluorescence intensity (a.u.). With “GATCTCCTCATGCCCTCGGCTGAACACATTGCGTTTGAAACGGAGTCACCTAGTGCAG” the binding signal was 8400 fluorescence intensity (a.u.). With “CCGCATCATATTCTGTTCCCCACCGCATCCTCCTCCGTTTCGGAGTCACCTAGTGCAG” the binding signal was 9000 fluorescence intensity (a.u.).
